Source: patent US20230235004A1
No constants are given. Whether binding was seen depends on the method and setting. Binding calls can cover weak binding; strength is not graded here.

Columns and labels:
[1] = target: cyno MAdCAM protein (cyno); test: Octet
[2] = target: cyno MAdCAM protein (cyno); test: ELISA

binding [1] | binding [2] | Binder
binds | binds | MAdCAM Antibody Table 2 clone 75 (antibody, V domains shown) VH: EVQLLESGGGLVQPGGSLRLSCAASGFTFSDFWMHWVRQAPGKGLEWISYISGDSGYTNYADSVKGRFTISRDNSKNTLYLQMNSLRAEDTAVYYCARDRPYYYYMDVWGKGTTVTVSS VL: DIQMTQSPSSLSASVGDRVTITCRASQSVSRSLAWYQQKPGKAPKLLIYAASSLQSGVPSRFSGSGSGTDFTLTISSLQPEDFATYYCQQYKSYPVTFGQGTKVEIK
no binding |  | MAdCAM Antibody Table 2 clone 14 (antibody, V domains shown) VH: QVQLVQSGAEVKKPGSSVKVSCKASGYTFTNYYMHWVRQAPGQGLEWMGGIIPIVDGVKYAQKFQGRVTITADESTSTAYMELSSLRSEDTAVYYCAKGQFTGNYYYGMDYWGQGTLVTVSS VL: DIQMTQSPSSLSASVGDRVTITCQANQDISNYLNWYQQKPGKAPKLLIYRASKLEAGVPSRFSGSGSGTDFTLTISSLQPEDFATYYCQQSSEIPYSFGQGTKVEIK

The remaining lines, values behind:

Binder | binding [1] | binding [2]
MAdCAM Antibody Table 2 clone 6 (antibody, V domains shown) VH: EVQLLESGGGLVQPGGSLRLSCAASGFTFNNYAFHWVRQAPGKGLEWVSRINSYGTSTTYADSVKGRFTISRDNSKNTLYLQMNSLRAEDTAVYYCAREGPVAGYWYFDLWGQGTLVTVSS VL: DIQMTQSPSSLSASVGDRVTITCRASQIIGTNLAWYQQKPGKAPKLLIYGASSLQSGVPSRFSGSGSGTDFTLTISSLQPEDFATYYCQQSYRLPFTFGQGTKVEIK | binds | binds
MAdCAM Antibody Table 2 clone 24 (antibody, V domains shown) VH: EVQLVESGGGLVKPGGSLRLSCAASGFTFSSYWMSWVRQAPGKGLEWVSRISSDGRITTYAAPVKGRFTISRDDSKNTLYLQMNSLKTEDTAVYYCARGTSYCTGGVCDIDYWGQGTLVTVSS VL: DIQMTQSPSSLSASVGDRVTITCRASQSIGRNLNWYQQKPGKAPKLLIYSASNLQSGVPSRFSGSGSGTDFTLTISSLQPEDFATYYCQQSYSIPLTFGPGTKVDIK | no binding | 
